Reference: publication PMC9943673

Chains of the proteins cited; added tags and fusions are not shown.
UniProt P54274: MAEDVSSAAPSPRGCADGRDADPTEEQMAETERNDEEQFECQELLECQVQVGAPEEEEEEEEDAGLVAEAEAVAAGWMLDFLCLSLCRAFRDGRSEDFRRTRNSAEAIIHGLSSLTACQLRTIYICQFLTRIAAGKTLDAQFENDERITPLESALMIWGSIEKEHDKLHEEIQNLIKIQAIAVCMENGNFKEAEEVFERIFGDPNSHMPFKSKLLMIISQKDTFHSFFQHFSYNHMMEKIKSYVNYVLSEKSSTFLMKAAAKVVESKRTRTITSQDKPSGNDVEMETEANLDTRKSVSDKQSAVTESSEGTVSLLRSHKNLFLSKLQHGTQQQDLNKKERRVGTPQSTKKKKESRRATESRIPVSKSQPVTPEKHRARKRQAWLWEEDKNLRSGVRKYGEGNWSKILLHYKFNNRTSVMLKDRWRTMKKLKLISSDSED

T1: PPM1D-D314A-BioID2 fusion protein (human) (UniProt O15297)
T1 sequence: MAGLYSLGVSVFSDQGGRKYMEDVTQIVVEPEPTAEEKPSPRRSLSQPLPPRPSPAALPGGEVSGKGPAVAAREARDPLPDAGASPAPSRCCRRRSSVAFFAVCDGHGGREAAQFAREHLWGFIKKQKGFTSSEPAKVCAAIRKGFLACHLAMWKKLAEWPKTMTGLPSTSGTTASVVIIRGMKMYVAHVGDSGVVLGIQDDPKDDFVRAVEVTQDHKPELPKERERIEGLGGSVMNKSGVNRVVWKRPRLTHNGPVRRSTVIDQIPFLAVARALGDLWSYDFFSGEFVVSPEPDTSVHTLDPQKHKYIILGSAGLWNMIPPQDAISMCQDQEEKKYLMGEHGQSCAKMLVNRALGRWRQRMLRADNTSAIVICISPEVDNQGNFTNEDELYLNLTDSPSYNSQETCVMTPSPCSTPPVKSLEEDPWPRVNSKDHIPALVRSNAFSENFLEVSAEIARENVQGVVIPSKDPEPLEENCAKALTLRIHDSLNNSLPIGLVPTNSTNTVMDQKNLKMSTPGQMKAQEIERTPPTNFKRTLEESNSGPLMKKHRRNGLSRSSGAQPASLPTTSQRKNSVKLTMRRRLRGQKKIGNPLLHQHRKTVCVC

B1: TRF2-interacting telomeric protein 1 (RAP1), endogenous in HEK293 (protein, UniProt Q9NYB0 1-399)
chain: MAEAMDLGKDPNGPTHSSTLFVRDDGSSMSFYVRPSPAKRRLSTLILHGGGTVCRVQEPGAVLLAQPGEALAEASGDFISTQYILDCVERNERLELEAYRLGPASAADTGSEAKPGALAEGAAEPEPQRHAGRIAFTDADDVAILTYVKENARSPSSVTGNALWKAMEKSSLTQHSWQSLKDRYLKHLRGQEHKYLLGDAPVSPSSQKLKRKAEEDPEAADSGEPQNKRTPDLPEEEYVKEEIQENEEAVKKMLVEATREFEEVVVDESPPDFEIHITMCDDDPPTPEEDSETQPDEEEEEEEEKVSQPEVGAAIKIIRQLMEKFNLDLSTVTQAFLKNSGELEATSAFLASGQRADGYPIWSRQDDIDLQKDDEDTREALVKKFGAQNVARRIEFRKK
B2: telomere-associated exonuclease DCLRE1B, endogenous in HEK293 (enzyme, UniProt Q9H816 1-532)
chain: MNGVLIPHTPIAVDFWSLRRAGTARLFFLSHMHSDHTVGLSSTWARPLYCSPITAHLLHRHLQVSKQWIQALEVGESHVLPLDEIGQETMTVTLLDANHCPGSVMFLFEGYFGTILYTGDFRYTPSMLKEPALTLGKQIHTLYLDNTNCNPALVLPSRQEAAHQIVQLIRKHPQHNIKIGLYSLGKESLLEQLALEFQTWVVLSPRRLELVQLLGLADVFTVEEKAGRIHAVDHMEICHSNMLRWNQTHPTIAILPTSRKIHSSHPDIHVIPYSDHSSYSELRAFVAALKPCQVVPIVSRRPCGGFQDSLSPRISVPLIPDSVQQYMSSSSRKPSLLWLLERRLKRPRTQGVVFESPEESADQSQADRDSKKAKKEKLSPWPADLEKQPSHHPLRIKKQLFPDLYSKEWNKAVPFCESQKRVTMLTAPLGFSVHLRSTDEEFISQKTREEIGLGSPLVPMGDDDGGPEATGNQSAWMGHGSPLSHSSKGTPLLATEFRGLALKYLLTPVNFFQAGYSSRRFDQQVEKYHKPC

biological target: T1, PPM1D-D314A-BioID2 fusion protein (human); experiment: proximity labelling; BioID2 in stable HEK293 cells, 50 uM biotin for 5 h, denaturing lysis, streptavidin beads, mass spectrometry, against empty BioID2 (n = 3, FDR < 0.05)

Molecule	binding
telomeric repeat-binding factor 1 (TRF1), endogenous in HEK293 (from UniProt P54274 1-439)	binds
telomeric repeat-binding factor 2 (TRF2), endogenous in HEK293 (from UniProt Q15554-3 1-542)	binds
B1	binds
B2	binds

These are yes or no findings as the source states them, for the method shown. In cells and extracts the contact can be indirect. Here binding means that the protein was enriched with, or labelled near, the bait; the list need not be complete. Tags and fused reporters may be left off the sequences shown.
